# ± gives the standard deviation of the averaged measurements. The list shows a part of the results, in another mix than the full data.
# Legend:
# Assay in all cases: NP40-soluble protein abundance relative to vehicle (solubility fold change) (ratio); higher = more soluble protein in presence of ATP
# TXNL1 = biological target: T1, TXNL1 (UniProt O43396)
# T1 sequence (whole entry): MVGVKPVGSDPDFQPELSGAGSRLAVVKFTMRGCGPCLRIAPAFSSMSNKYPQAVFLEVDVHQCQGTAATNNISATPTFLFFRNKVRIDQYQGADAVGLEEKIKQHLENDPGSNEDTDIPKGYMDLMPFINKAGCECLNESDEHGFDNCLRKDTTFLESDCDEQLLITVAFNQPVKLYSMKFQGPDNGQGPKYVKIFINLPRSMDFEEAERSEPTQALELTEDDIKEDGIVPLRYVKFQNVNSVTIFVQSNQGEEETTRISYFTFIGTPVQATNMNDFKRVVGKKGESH
# Summary of the method: (§1)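 Values are fold changes against the detergent-processed vehicle, based on vsn-normalised intensities. Jurkat crude lysate was treated at eight concentrations from 0.1 to 10 mM (10 min at room temperature, then 3 min at 37 °C), solubilised with 0.8% NP40 and benzonase, ultracentrifuged and analysed by TMT-labelled LC-MS/MS over three independent experiments.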
# [1] = biological target: T2, UniProt O00255 and related entries
# T2 sequence (whole entry): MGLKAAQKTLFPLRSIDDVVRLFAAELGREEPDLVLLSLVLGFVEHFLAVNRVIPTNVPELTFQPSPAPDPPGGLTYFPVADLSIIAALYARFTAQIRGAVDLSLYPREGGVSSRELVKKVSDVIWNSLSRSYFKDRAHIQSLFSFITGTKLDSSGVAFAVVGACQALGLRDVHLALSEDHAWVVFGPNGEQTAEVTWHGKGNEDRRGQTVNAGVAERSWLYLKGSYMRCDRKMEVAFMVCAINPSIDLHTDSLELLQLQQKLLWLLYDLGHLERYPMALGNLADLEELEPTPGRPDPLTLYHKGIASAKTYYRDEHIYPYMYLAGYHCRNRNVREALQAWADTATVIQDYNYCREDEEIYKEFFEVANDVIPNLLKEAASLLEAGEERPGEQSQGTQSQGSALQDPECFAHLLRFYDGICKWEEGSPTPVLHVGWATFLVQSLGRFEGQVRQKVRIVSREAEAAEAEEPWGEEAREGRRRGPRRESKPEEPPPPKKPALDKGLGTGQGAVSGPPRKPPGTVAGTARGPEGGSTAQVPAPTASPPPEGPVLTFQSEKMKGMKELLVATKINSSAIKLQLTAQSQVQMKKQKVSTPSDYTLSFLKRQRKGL
# Summary of the method: as §1
# [2] = biological target: T3, UniProt O00410 and related entries
# T3 sequence (whole entry): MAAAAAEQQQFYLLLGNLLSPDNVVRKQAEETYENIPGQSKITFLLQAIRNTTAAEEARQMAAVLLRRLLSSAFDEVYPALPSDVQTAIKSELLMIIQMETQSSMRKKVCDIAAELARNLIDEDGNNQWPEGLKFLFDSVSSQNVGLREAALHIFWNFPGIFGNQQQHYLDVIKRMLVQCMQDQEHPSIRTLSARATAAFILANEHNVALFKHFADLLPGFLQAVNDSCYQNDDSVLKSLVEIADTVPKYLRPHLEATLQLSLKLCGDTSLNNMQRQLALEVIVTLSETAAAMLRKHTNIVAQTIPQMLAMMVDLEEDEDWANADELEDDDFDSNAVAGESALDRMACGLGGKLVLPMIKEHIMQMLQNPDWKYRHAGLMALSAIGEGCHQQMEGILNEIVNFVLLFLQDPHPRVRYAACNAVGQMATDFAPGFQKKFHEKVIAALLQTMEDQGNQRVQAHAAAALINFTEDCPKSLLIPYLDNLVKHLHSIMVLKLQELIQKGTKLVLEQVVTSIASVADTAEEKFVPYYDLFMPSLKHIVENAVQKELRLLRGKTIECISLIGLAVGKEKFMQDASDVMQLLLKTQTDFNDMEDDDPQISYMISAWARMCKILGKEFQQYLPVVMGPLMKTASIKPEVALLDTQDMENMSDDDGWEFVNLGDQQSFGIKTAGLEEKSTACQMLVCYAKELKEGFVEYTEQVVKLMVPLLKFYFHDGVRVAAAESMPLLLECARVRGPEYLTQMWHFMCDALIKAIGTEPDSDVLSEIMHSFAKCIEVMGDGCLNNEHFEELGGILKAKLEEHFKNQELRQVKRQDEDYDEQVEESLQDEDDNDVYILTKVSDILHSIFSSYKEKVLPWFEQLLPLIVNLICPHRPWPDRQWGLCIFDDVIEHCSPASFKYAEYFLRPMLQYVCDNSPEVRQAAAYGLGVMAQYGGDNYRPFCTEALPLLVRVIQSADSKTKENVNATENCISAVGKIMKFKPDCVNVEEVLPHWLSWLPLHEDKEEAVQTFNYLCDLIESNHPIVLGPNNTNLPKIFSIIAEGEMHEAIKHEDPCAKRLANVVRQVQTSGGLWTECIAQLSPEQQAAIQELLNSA
# Summary of the method: as §1
# [3] = biological target: T4, UniProt O14920 and related entries
# T4 sequence (whole entry): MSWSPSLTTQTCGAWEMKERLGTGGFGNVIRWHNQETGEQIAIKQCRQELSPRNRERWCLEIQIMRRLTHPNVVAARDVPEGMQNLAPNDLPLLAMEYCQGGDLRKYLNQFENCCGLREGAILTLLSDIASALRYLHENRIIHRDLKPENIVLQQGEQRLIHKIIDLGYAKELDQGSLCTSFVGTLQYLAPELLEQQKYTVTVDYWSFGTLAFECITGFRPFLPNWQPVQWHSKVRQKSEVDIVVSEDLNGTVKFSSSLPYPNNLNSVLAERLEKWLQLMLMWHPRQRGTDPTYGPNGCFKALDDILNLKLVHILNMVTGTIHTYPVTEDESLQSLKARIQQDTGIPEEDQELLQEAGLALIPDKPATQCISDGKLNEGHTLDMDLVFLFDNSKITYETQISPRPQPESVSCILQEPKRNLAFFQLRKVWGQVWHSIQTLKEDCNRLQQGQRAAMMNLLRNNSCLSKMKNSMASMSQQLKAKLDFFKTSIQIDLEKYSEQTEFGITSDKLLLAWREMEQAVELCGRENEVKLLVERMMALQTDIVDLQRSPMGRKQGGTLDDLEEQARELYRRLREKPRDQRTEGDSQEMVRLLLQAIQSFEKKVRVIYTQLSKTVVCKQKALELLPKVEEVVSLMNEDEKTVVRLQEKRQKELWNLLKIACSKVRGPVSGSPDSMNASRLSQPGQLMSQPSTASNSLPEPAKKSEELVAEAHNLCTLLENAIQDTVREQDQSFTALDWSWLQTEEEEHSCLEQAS
# Summary of the method: as §1
# UniProt O15091 = biological target: T5, UniProt O15091
# T5 sequence (whole entry): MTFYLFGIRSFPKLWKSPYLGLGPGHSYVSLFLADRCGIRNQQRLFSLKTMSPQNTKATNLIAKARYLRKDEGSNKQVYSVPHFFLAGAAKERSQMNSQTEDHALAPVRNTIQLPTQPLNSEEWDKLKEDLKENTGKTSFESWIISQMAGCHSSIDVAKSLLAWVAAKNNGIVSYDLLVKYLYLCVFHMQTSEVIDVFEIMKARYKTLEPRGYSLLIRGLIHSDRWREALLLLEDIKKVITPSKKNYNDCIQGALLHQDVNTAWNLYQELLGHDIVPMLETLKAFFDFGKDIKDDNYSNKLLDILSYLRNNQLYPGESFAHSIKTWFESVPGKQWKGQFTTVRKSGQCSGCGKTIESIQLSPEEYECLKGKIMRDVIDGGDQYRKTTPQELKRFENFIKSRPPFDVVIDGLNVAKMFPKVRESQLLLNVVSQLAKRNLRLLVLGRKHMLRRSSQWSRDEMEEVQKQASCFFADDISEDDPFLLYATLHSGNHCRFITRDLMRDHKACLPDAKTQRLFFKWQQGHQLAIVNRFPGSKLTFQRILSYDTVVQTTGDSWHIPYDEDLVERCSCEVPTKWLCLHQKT
# Summary of the method: as §1
# [4] = biological target: T6, UniProt O15123 and related entries
# T6 sequence (whole entry): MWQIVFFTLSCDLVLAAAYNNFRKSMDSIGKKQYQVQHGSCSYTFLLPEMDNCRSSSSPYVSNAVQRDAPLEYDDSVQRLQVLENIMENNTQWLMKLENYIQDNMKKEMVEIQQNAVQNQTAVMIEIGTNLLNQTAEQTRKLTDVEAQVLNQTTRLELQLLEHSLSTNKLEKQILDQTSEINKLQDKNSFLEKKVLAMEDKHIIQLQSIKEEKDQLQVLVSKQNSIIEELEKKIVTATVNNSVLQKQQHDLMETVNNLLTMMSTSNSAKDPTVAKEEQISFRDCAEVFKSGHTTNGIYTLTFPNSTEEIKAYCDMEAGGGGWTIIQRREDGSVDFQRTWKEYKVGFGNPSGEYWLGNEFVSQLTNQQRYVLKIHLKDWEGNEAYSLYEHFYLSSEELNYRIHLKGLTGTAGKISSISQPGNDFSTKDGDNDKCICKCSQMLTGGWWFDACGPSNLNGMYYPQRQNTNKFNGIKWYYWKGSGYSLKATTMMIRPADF
# Summary of the method: as §1
smiles,measurement,setting,value
Nc1ncnc2c1ncn2[C@@H]1O[C@H](COP(=O)(O)OP(=O)(O)OP(=O)(O)O)[C@@H](O)[C@H]1O [adenosine triphosphate],NP40-soluble protein abundance,TXNL1; concentration: 1mM,1.02 ± 0.013
same,NP40-soluble protein abundance,TXNL1; concentration: 2mM,1.01 ± 0.027
same,NP40-soluble protein abundance,TXNL1; concentration: 4mM,0.996 ± 0.045
same,NP40-soluble protein abundance,TXNL1; concentration: 6mM,0.946 ± 0.025
same,NP40-soluble protein abundance,TXNL1; concentration: 8mM,0.989 ± 0.035
same,NP40-soluble protein abundance,TXNL1; concentration: 10mM,0.978 ± 0.035
same,NP40-soluble protein abundance,[1]; concentration: 1mM,1.09 ± 0.077
same,NP40-soluble protein abundance,[1]; concentration: 2mM,1.1 ± 0.073
same,NP40-soluble protein abundance,[1]; concentration: 4mM,1.14 ± 0.048
same,NP40-soluble protein abundance,[1]; concentration: 6mM,1.11 ± 0.13
same,NP40-soluble protein abundance,[1]; concentration: 8mM,1.2 ± 0.062
same,NP40-soluble protein abundance,[1]; concentration: 10mM,1.19 ± 0.037
same,NP40-soluble protein abundance,[2]; concentration: 1mM,0.976 ± 0.022
same,NP40-soluble protein abundance,[2]; concentration: 2mM,0.968 ± 0.025
same,NP40-soluble protein abundance,[2]; concentration: 4mM,0.9321 ± 0.0071
same,NP40-soluble protein abundance,[2]; concentration: 6mM,0.928 ± 0.04
same,NP40-soluble protein abundance,[2]; concentration: 8mM,0.935 ± 0.0095
same,NP40-soluble protein abundance,[2]; concentration: 10mM,0.93 ± 0.017
same,NP40-soluble protein abundance,[3]; concentration: 1mM,1.02 ± 0.017
same,NP40-soluble protein abundance,[3]; concentration: 2mM,1.01 ± 0.042
same,NP40-soluble protein abundance,[3]; concentration: 4mM,0.99 ± 0.013
same,NP40-soluble protein abundance,[3]; concentration: 6mM,0.967 ± 0.038
same,NP40-soluble protein abundance,[3]; concentration: 8mM,0.961 ± 0.03
same,NP40-soluble protein abundance,[3]; concentration: 10mM,0.974 ± 0.052
same,NP40-soluble protein abundance,UniProt O15091; concentration: 1mM,1.02 ± 0.012
same,NP40-soluble protein abundance,UniProt O15091; concentration: 2mM,1.02 ± 0.039
same,NP40-soluble protein abundance,UniProt O15091; concentration: 4mM,1.04 ± 0.021
same,NP40-soluble protein abundance,UniProt O15091; concentration: 6mM,0.998 ± 0.045
same,NP40-soluble protein abundance,UniProt O15091; concentration: 8mM,1.05 ± 0.028
same,NP40-soluble protein abundance,UniProt O15091; concentration: 10mM,1.05 ± 0.084
same,NP40-soluble protein abundance,[4]; concentration: 1mM,0.901 ± 0.023
same,NP40-soluble protein abundance,[4]; concentration: 2mM,0.884 ± 0.039
same,NP40-soluble protein abundance,[4]; concentration: 4mM,0.939 ± 0.04

# Already shown: entries from further up.
smiles,measurement,setting,value
Nc1ncnc2c1ncn2[C@@H]1O[C@H](COP(=O)(O)OP(=O)(O)OP(=O)(O)O)[C@@H](O)[C@H]1O [adenosine triphosphate],NP40-soluble protein abundance,[2]; concentration: 2mM,0.968 ± 0.025
same,NP40-soluble protein abundance,[2]; concentration: 4mM,0.9321 ± 0.0071

# Reference: the supplement of paper PMC6411743
